The target of assay [1] is T1, YjeF-N-GST fragment of Edc3 (S. cerevisiae) (UniProt P39998).
T1 sequence: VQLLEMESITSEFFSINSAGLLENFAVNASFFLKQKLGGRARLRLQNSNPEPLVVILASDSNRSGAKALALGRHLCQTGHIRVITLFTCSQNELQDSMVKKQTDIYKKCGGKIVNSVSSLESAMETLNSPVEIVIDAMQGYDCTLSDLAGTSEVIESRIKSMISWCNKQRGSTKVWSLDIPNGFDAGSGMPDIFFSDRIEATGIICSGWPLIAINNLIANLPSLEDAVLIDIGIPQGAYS
In words: pull-down; GST-tagged Edc3 fragments immobilised on glutathione sepharose beads, purified Sbp1 added; 200 pmol of each protein; 4 °C, 2 h; 50 mM HEPES pH 7, 100 mM NaCl, 1 mM DTT, 2 mM MnCl2, 2 mM MgCl2, 1% Triton-X100, 10% glycerol, 0.25 mg/mL RNase A, 10 mg/mL BSA; western blot; both purified. A general note: A western blot detects proteins with antibodies after separation by electrophoresis.

The target in assay [2] is T1, YjeF-N-GST fragment of Edc3 (S. cerevisiae). In words: pull-down; eluted YjeF-N-GST, Edc3-mCherry and with or without His-Sbp1-FLAG incubated with glutathione sepharose beads; 100 pmol of each protein; 1X protein-protein interaction buffer, 4 °C, 2 h; western blot; both purified.

Results are given in words; binding and its absence hold for the method and conditions named. Some results given as binding are weak or reduced against the parent protein; the word gives no strength. Sequences can lack the tags named with a protein.

B1: His-Sbp1-FLAG (natural protein, S. cerevisiae, UniProt P10080 1-294, looked up)
chain: MSAEIEEATNAVNNLSINDSEQQPRAPTHKTVIDPEDTIFIGNVAHECTEDDLKQLFVEEFGDEVSVEIPIKEHTDGHIPASKHALVKFPTKIDFDNIKENYDTKVVKDREIHIKRARTPGQMQRGGFRGRGGFRGRGGFRGGFRGGYRGGFRGRGNFRGRGGARGGFNGQKREKIPLDQMERSKDTLYINNVPFKATKEEVAEFFGTDADSISLPMRKMRDQHTGRIFTSDSANRGMAFVTFSGENVDIEAKAEEFKGKVFGDRELTVDVAVIRPENDEEEIEQETGSEEKQE
notes: Sbp1, RGG-motif containing translation repressor of S. cerevisiae; wild type; also called wild-type Sbp1; purified Sbp1; source: E. coli BL21, purified (Ni-NTA agarose, batch; RNase A added during purification); not shown: His, N-terminal, kept; FLAG, C-terminal, kept
As for B1, the binding result in assay [1] is recorded as “binds”.

B2: His-Edc3-mCherry (protein, UniProt P39998 1-551)
chain: MSQFVGFGVQVELKDGKLIQGKIAKATSKGLTLNDVQFGDGGKSQAFKVRASRLKDLKVLTVASQSGKRKQQRQQQQQNDYNQNRGEHIDWQDDDVSKIKQQEDFDFQRNLGMFNKKDVFAQLKQNDDILPENRLQGHNRKQTQLQQNNYQNDELVIPDAKKDSWNKISSRNEQSTHQSQPQQDAQDDLVLEDDEHEYDVDDIDDPKYLPITQSLNITHLIHSATNSPSINDKTKGTVINDKDQVLAKLGQMIISQSRSNSTSLPAANKQTTIRSKNTKQNIPMATPVQLLEMESITSEFFSINSAGLLENFAVNASFFLKQKLGGRARLRLQNSNPEPLVVILASDSNRSGAKALALGRHLCQTGHIRVITLFTCSQNELQDSMVKKQTDIYKKCGGKIVNSVSSLESAMETLNSPVEIVIDAMQGYDCTLSDLAGTSEVIESRIKSMISWCNKQRGSTKVWSLDIPNGFDAGSGMPDIFFSDRIEATGIICSGWPLIAINNLIANLPSLEDAVLIDIGIPQGAYSQRTSLRKFQNCDLFVTDGSLLLDL
In the case of B2, the binding entry in assay [2] is recorded as “binds”.

(Values after paper PMC9019020, “Low complexity RGG-motif sequence is required for Processing body (P-body) disassembly” (Nature Communications, 2022).)
